From paper PMC5859036

By UniProt entry, the sequences of proteins in these tests, tags left out.
UniProt P07355: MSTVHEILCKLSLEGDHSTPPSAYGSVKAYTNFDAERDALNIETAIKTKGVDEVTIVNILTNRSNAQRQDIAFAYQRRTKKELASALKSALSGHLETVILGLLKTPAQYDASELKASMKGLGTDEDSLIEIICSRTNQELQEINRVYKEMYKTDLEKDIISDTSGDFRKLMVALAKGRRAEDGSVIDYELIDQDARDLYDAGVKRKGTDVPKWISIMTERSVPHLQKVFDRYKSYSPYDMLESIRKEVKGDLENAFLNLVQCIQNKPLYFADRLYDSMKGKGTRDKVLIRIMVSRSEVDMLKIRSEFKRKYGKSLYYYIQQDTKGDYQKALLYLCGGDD

Biological target: T1, stomatin-like protein-2 (SLP-2) (human) (UniProt Q9UJZ1)
T1 sequence: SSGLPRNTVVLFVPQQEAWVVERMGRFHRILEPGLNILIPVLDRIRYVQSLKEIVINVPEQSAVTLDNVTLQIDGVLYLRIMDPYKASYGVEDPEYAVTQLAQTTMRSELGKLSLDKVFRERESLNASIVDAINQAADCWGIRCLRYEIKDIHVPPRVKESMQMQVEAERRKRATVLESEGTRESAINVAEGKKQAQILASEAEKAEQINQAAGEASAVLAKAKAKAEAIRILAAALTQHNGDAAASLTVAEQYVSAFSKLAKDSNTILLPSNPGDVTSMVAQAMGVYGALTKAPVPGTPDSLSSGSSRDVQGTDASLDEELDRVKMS
Assay: affinity purification with mass spectrometry; agarose-conjugated rabbit polyclonal anti-SLP-2 antibody, 10 mg lysate of SLP-2 overexpressing A549 cells in modified RIPA buffer, overnight; bands cut from silver-stained SDS gel, trypsin, LC-MS/MS

binding: binds
Substance: annexin A2 (from UniProt P07355 1-339)

These are yes or no findings as the source states them, for the method shown. Binding seen in cells or lysates may run through a third protein. A yes stands for co-enrichment or nearness to the bait. Other partners may have been found.
